Results taken from PubChem BioAssay AID504444 (National Center for Advancing Translational Sciences (NCATS), 2011).
Screen size: about 360,000 compounds; about 7,500 (2.1%) were called active. Inconclusive results, whose numbers are uncertain, are shown with a selection of clear calls. Calls come from the whole dose curve; as a rule, active = well fitted inhibition curve with a large enough effect; inconclusive = small, poorly fitted or top-dose-only effect, or effect the other way; inactive = flat fitted curve, though single readings scatter. Potencies beside an inconclusive call are fits to weak or partial responses and may not hold up.

Assay: Nrf2 qHTS screen for inhibitors; note: nearly all actives have a fitted effect of over 60% in size
Details: A549 ARE-Fluc reporter, luciferase luminescence, 18-24 h; activity change, negative = inhibition: at 46 µM (top of the series)
Method in brief: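 A549 ARE_Fluc cells, 5000/well, 5% FBS OPTI-MEM; compounds in dose-response, 18-24 h at 37 °C/5% CO2; CellTiter-Fluor viability read (Ex 405/Em 525), then BugLite luciferase luminescence = Nrf2 activity.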
% is set by controls: 0 for no effect and ±100 for the full control effect; potency is the fitted concentration of half-maximal effect.

| Compound | activity change, negative = inhibition | Potency |
| --- | --- | --- |
| CCOC(=O)C1=C(O)C(=O)N(Cc2ccccc2)C1 | inactive: 1.98% |  |
| COC(=O)Cc1cc(=O)n(-c2nc3ccccc3s2)[nH]1 |  | inconclusive: 0.164 µM [falling, full curve, poor fit] |
| CCOC(=O)C1(C)NC(c2ccc(OC)cc2OC)C2C(=O)N(c3cccc(OC)c3)C(=O)C21 (stereo unspecified) |  | inconclusive: 4.11 µM [activator, single point] |
| O=C(Cn1nnc(-c2ccccc2NC(=O)c2cccs2)n1)Nc1ccccc1 |  | inconclusive: 18.4 µM [falling, partial curve] |
| COc1cccc(NC(=O)Cn2c(=O)n(Cc3ccc(C(=O)NCc4ccc5c(c4)OCO5)cc3)c(=O)c3ccccc32)c1 | inactive: -18.8% |  |
| C/C(CC(=O)Nc1ccc(C)c(Cl)c1)=N\NC(=O)c1ccco1 |  | inconclusive: 23.1 µM [activator, single point] |
| Cc1ccc(S(=O)(=O)Cn2nnnc2C(c2ccccc2)N2CCN(c3ncccn3)CC2)cc1 (stereo unspecified) | inactive: -30.1% |  |
| Cc1cc(Br)ccc1NC(=O)c1sc2ncn(CC(=O)N3CCN(c4ccccn4)CC3)c(=O)c2c1C |  | active: 18.4 µM |
| O=C(NCc1ccc(F)cc1)c1cccs1 | inactive: 3.14% |  |
| Oc1ccccc1-c1nc(NCc2ccccc2)c2ccccc2n1 |  | inconclusive: 29.1 µM [activator, single point] |
| CCOC(=O)Cn1c(-c2ccccn2)nc2ccccc21 | inactive: 2.26% |  |
| Cc1ccc(C(=O)OCc2cc3ccccc3[nH]c2=O)cc1 |  | inconclusive: 18.4 µM [falling, partial curve, poor fit] |
| Cc1cc(C)n2[nH]c(=O)c(N=Nc3cccc(C(F)(F)F)c3)c2n1 |  | inconclusive: 25.9 µM [falling, partial curve] |
| CCOc1ccc(NC(=O)CN(C)C(=O)c2cc3c(s2)CCCCC3)cc1OCC |  | inconclusive: 25.9 µM [falling, single point] |
| O=C1CCC[C@@H]2Cc3nc4ccc(O)cc4cc3[C@@H]3CCN1[C@H]23 | inactive: 6.84% |  |
| Cc1ccc(COC(=O)c2cc(S(=O)(=O)N3CCOCC3)ccc2C)cc1 |  | active: 16.4 µM |
| O=C(C1COc2ccccc2O1)N1CCN(c2ccccc2Cl)CC1 (stereo unspecified) |  | inconclusive: 9.2 µM [activator, partial curve] |
| COc1cccc(CNC(=O)N2CCN(S(=O)(=O)c3ccc(C)cc3)CC2)c1 |  | inconclusive: 23.1 µM [falling, single point] |
| Cc1cccc(N2CCN(C(=O)C(C)n3nc(C)n4c(cc5occc54)c3=O)CC2)c1C (stereo unspecified) |  | inconclusive: 29.1 µM [falling, single point] |
| CC(=O)Nc1ccc(C(=O)NCCc2ccccc2)cc1 |  | inconclusive: 2.59 µM [activator, partial curve, poor fit] |
| N#Cc1ccc(CC(=O)c2ccccc2)[nH]c1=O |  | inconclusive: 18.4 µM [activator, single point] |
| O=C(O)/C=C/C(=O)Nc1ccc(-c2ccccc2)cc1 |  | inconclusive: 29.1 µM [activator, single point] |

Three structures already listed, sorted by SMILES length, largest number first.

| Compound | activity change, negative = inhibition | Potency |
| --- | --- | --- |
| Cc1cc(Br)ccc1NC(=O)c1sc2ncn(CC(=O)N3CCN(c4ccccn4)CC3)c(=O)c2c1C |  | active: 18.4 µM |
| COc1cccc(CNC(=O)N2CCN(S(=O)(=O)c3ccc(C)cc3)CC2)c1 |  | inconclusive: 23.1 µM [falling, single point] |
| CCOC(=O)C1=C(O)C(=O)N(Cc2ccccc2)C1 | inactive: 1.98% |  |

Following part

| Compound | activity change, negative = inhibition | Potency |
| --- | --- | --- |
| Cc1cc(C)c(NC(=O)c2c(C)oc3c2C2=NCCN2C=N3)c(C)c1 |  | inconclusive: 20.6 µM [activator, single point] |
| COc1cc(Cl)ccc1OCc1cc(C(=O)NCc2cc(C(C)C)no2)no1 |  | inconclusive: 7.31 µM [activator, partial curve] |
| O=C(CCCCl)Oc1ccc2cc(-c3ccc4ccccc4n3)c(=O)oc2c1 |  | inconclusive: 9.2 µM [activator, partial curve] |
| Oc1ccccc1-c1cc(-c2ccccc2)no1 |  | inconclusive: 23.1 µM [activator, partial curve] |
| Fc1ccc(NC(=S)N2CCc3ccccc3C2)c(F)c1 |  | inconclusive: 32.6 µM [activator, single point] |
| CCN1C(=O)[C@H]2[C@@H](c3ccc(-c4ccc(Cl)c(Cl)c4)cc3)N[C@@](C)(C(=O)OC)[C@H]2C1=O |  | inconclusive: 16.4 µM [falling, partial curve] |
| COc1ccc(NC(=O)C(CCSC)NC(N)=O)cc1Cl (stereo unspecified) |  | inconclusive: 29.1 µM [activator, single point] |
| COc1ccc(C(=O)N2c3nc(-c4ccco4)nn3C3(CCCCC3)[C@@H]3CCCC[C@@H]32)cc1OC | inactive: 7.24% |  |
| C/C(Cn1cnc([N+](=O)[O-])n1)=N\NC(=O)c1ccc(F)cc1 |  | inconclusive: 32.6 µM [activator, partial curve, poor fit] |
| Cc1ccccc1OCC(=O)Nc1ccc(S(=O)(=O)Nc2onc(C)c2C)cc1 |  | inconclusive: 6.51 µM [falling, partial curve, poor fit] |
| Cc1ccc(NC(=O)c2ccccn2)c(Br)c1 |  | inconclusive: 9.2 µM [activator, partial curve] |
| CC(C)CC(NC(=O)CC12CC3CC(CC(C3)C1)C2)C(=O)NC1=NCCS1 (stereo unspecified) |  | inconclusive: 14.6 µM [activator, partial curve, poor fit] |
| COc1cccc(-n2c(SCc3ccccn3)nc3c(c2=O)SCC3)c1 |  | active: 1.84 µM |
| CC1(C)CC2CC(C)(CN2S(=O)(=O)c2cccc(N)c2)C1 (stereo unspecified) |  | inconclusive: 0.731 µM [falling, partial curve, poor fit] |
| Cc1cccc(C(=O)N2CCCCC2CCN2CCCCC2)c1 (stereo unspecified) | inactive: 3.37% |  |
| O=C(Nc1ccc(F)cc1)c1oc2ccccc2c1NC(=O)C1CCCCC1 |  | inconclusive: 7.31 µM [falling, partial curve, poor fit] |
| O=C(NC1CCCCC1)c1ccc(Cn2c(SCc3ccccc3)nc3cccnc32)cc1 |  | inconclusive: 29.1 µM [activator, single point] |
| Cc1c(NC(=O)c2cccc(NC(=O)Cc3ccc(Cl)cc3)c2)c(=O)n(-c2ccccc2)n1C |  | inconclusive: 14.6 µM [falling, partial curve, poor fit] |
| CCC(Oc1ccc(F)cc1)C(=O)Nc1nc2c(s1)CCCC2 (stereo unspecified) |  | inconclusive: 23.1 µM [falling, single point] |
| CCc1cccc(NC(=O)Cc2ccc(OC)c(OC)c2)c1 |  | inconclusive: 23.1 µM [falling, partial curve] |
| Cc1ccc(C(=O)N/N=C(/CC(=O)c2cccs2)C(F)(F)F)cc1 |  | inconclusive: 20.6 µM [falling, single point] |
| O=C(c1ccccc1)N1CC(COc2ccccc2)OC(c2ccco2)O1 (stereo unspecified) |  | inconclusive: 13 µM [activator, partial curve, poor fit] |

Filtered by structure: those above with a furan ring, fused or not.

| Compound | activity change, negative = inhibition | Potency |
| --- | --- | --- |
| C/C(CC(=O)Nc1ccc(C)c(Cl)c1)=N\NC(=O)c1ccco1 |  | inconclusive: 23.1 µM [activator, single point] |
| Cc1cccc(N2CCN(C(=O)C(C)n3nc(C)n4c(cc5occc54)c3=O)CC2)c1C (stereo unspecified) |  | inconclusive: 29.1 µM [falling, single point] |
| Cc1cc(C)c(NC(=O)c2c(C)oc3c2C2=NCCN2C=N3)c(C)c1 |  | inconclusive: 20.6 µM [activator, single point] |
| COc1ccc(C(=O)N2c3nc(-c4ccco4)nn3C3(CCCCC3)[C@@H]3CCCC[C@@H]32)cc1OC | inactive: 7.24% |  |
| O=C(Nc1ccc(F)cc1)c1oc2ccccc2c1NC(=O)C1CCCCC1 |  | inconclusive: 7.31 µM [falling, partial curve, poor fit] |
| O=C(c1ccccc1)N1CC(COc2ccccc2)OC(c2ccco2)O1 (stereo unspecified) |  | inconclusive: 13 µM [activator, partial curve, poor fit] |

The list goes on.

| Compound | activity change, negative = inhibition | Potency |
| --- | --- | --- |
| COc1cc(OC)cc(-c2nc3ccccc3c(=O)n2OC(=O)c2ccc(Br)cc2)c1 | inactive: 0.738% |  |
| CCOc1ccccc1NC(=O)c1cc(-c2ccccn2)nc2ccccc12 | inactive: -35.1% |  |
| Cc1ccccc1-c1nnc(-c2cccc3ccccc23)o1 |  | inconclusive: 4.61 µM [activator, full curve] |
| COc1ccc(OCC(=O)N2CCN(c3cccc(Cl)c3)CC2)cc1 | inactive: -3.45% |  |
| CC(=O)Nc1ccc(-c2cc(-c3ccc(NC(C)=O)cc3)nc(-c3ccccc3)n2)cc1 |  | inconclusive: 1.84 µM [falling, partial curve, poor fit] |
| CCN1CCOC(=O)C1CC(=O)Nc1ccc(C)c(Cl)c1 (stereo unspecified) | inactive: 5.5% |  |
| Nc1c(C(=O)Nc2cccc(F)c2)sc2nc(-c3cccs3)ccc12 | inactive: -6.31% |  |
| COc1ccccc1-c1cc(C(=O)Nc2c(C)n(C)n(-c3ccccc3)c2=O)no1 | inactive: -12.8% |  |
| COC(=O)[C@@]12CCCCN1[C@H](c1ccc(-c3ccc(OC)cc3)c(OC)c1)[C@@H]1C(=O)N(C)C(=O)[C@@H]12 |  | inconclusive: 29.1 µM [falling, single point] |
| O=C(NC1CCCCC1)c1cc2cc(Br)ccc2o1 |  | inconclusive: 0.0291 µM [activator, full curve, poor fit] |
| O=C(CSc1nnc(-c2ccco2)o1)N1CCCCC1 |  | inconclusive: 29.1 µM [activator, partial curve] |
| COc1ccc(N2CCN(Cc3nc4cc(Cl)ccc4c(=O)[nH]3)CC2)cc1 |  | inconclusive: 0.116 µM [activator, full curve, poor fit] |
| O=C(CCCSc1nc2ccccc2s1)NC1=NCCS1 |  | inconclusive: 23.1 µM [falling, single point] |
| O=C(NCc1ccco1)C(c1ccccc1)N(C(=O)Cc1cccs1)c1ccccc1F (stereo unspecified) |  | inconclusive: 4.61 µM [activator, single point] |
| C[n+]1ccc(/C=C/c2c[nH]c3ccccc23)cc1 |  | active: 0.82 µM |
| Cc1cccc(C(=O)N2CCCC(CCC(=O)N3CCN(c4ccccn4)CC3)C2)c1C (stereo unspecified) |  | inconclusive: 23.1 µM [falling, single point] |
| Oc1oc(-c2ccccc2)nc1/C=N/c1ccccn1 |  | inconclusive: 5.8 µM [activator, full curve] |
| C/C(=N\Nc1ccc(S(N)(=O)=O)cc1[N+](=O)[O-])c1ccc2c(c1)OCO2 |  | inconclusive: 10.3 µM [falling, partial curve] |
| Cc1ccnc2nc(C(=O)OCC(=O)c3ccccc3)nn12 |  | inconclusive: 20.6 µM [activator, partial curve] |
| COc1ccc(-c2cc(C(=O)Nc3ccccc3N3CCOCC3)c3ccccc3n2)cc1OC |  | active: 14.6 µM |
| COc1cc(NC(=O)C2=CC(c3ccc(C)cc3)=NS(=O)(=O)N2C)cc(OC)c1OC |  | inconclusive: 29.1 µM [falling, single point] |
| O=C(O)C1Sc2[nH]c(=O)sc2C2c3cc(Br)ccc3OC(=O)C12 (stereo unspecified) |  | inconclusive: 0.103 µM [falling, full curve, poor fit] |
